These results are taken from article PMC5609913, “Structure based design, synthesis and activity studies of small hybrid molecules as HDAC and G9a dual inhibitors” (Oncotarget, 2017).

Holding throughout (format): cell-based
The test system of one assay is HEK293 cells. Kind of assay: Cell anti-proliferation / toxicity assay (CCK-8), HEK293 normal cell line. Conditions: Homo sapiens, Table 6, 72 h. As to the method:
(§1) Cell anti-proliferation assays were performed to determine the toxicity of these inhibitors. Several cell lines (MDA-MB-231, MCF-7 and A549) were incubated and then treated with varying concentrations of the inhibitors for 72 h, respectively. […] These compounds were further evaluated against the control cell line HEK293 to test their toxicity with a non-cancerous cell line.
(§2) A549, MDA-MB-231, MCF-7 and HEK293 cells were seeded at 8000-10000 cells (100 μl) in white 96-well plates and pre-incubate the plate for 24 h under standard cell culture conditions, respectively. And then the cells were exposed to the different inhibitors with various concentrations for 72 h. Finally, 10 μl of CCK-8 kit solution was added to each well and incubated for 3-4 hours under standard cell culture conditions, and the 96 well plates were measured the absorbance at 450 nm using Perkin–Elmer Wallac Victor ^3V 1420 multi label plate reader (Perkin–Elmer, Wellesley, USA). EC50s were calculated using GraphPad Prizm statistical package with sigmoidal variable slope dose response curve fit.

In another assay the test system is A549 cells. Description: Cell anti-proliferation / toxicity assay (CCK-8), A549. Conditions: Homo sapiens, Table 6, 72 h, >100 = not reached at highest tested concentration (100 μM). Here is the method:
as §1, §2

The test system of another assay is MCF-7 cells. Kind of assay: Cell anti-proliferation / toxicity assay (CCK-8), MCF-7. Conditions: Homo sapiens, MCF7. Here is the method: Initial tests designed around assessing whether a synergistic effect would be observed in real when a combination of G9a inhibitor and HDAC inhibitor used in conjunction.
as §1, §2

Like-named read-outs stand apart in the source and are kept apart here.

As a reminder, the EC50 is the concentration giving half of the maximal effect. On to `O=C(CCCCCCC(=O)Nc1ccccc1)NO` [SAHA, reference compound], for which the EC50 in the assay with HEK293 cells was found to be 2.48 ± 1.13 µM; in the assay on A549 cells, 19.3 ± 1.26 µM; in the assay with MCF-7 cells (Table 6, 72 h, CCK-8, mean ± SD of triplicates, read-out: EC50 MCF-7) it was 8.12 ± 4.98 µM; in the assay on MCF-7 cells (read-out: EC50, MCF-7 (combination study)) it was 8.12 ± 4.98 µM.
